In the M2OR odorant receptor database:
Changes are numbered by the printed parent chain. The list shows a part of the results, in another mix than the full data. The calls were merged from several studies; some rest on single wells. This is one part of the list.

Chains of the proteins cited; added tags and fusions are not shown. A line that says so, or that is headed by a name, gives the form on record, which may keep a tag or linker.
O10C1, as listed by the source: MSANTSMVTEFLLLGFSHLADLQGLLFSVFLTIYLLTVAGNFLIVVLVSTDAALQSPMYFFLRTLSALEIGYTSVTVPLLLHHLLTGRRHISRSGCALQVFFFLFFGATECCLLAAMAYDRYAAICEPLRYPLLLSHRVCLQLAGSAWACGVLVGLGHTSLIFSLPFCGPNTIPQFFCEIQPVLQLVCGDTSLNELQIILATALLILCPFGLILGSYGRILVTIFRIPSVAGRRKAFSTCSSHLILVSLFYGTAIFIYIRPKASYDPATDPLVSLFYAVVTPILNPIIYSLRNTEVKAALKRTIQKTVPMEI
O10G7, as listed by the source: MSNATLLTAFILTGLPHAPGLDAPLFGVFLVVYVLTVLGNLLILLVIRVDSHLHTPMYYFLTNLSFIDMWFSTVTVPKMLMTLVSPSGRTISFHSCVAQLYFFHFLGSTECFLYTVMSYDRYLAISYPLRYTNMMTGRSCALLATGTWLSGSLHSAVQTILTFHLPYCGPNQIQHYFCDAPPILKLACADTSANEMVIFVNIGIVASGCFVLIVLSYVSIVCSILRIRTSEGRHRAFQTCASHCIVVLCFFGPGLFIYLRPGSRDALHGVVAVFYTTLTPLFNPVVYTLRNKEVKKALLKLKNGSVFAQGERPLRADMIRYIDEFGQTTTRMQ
O10A6, as listed by the source: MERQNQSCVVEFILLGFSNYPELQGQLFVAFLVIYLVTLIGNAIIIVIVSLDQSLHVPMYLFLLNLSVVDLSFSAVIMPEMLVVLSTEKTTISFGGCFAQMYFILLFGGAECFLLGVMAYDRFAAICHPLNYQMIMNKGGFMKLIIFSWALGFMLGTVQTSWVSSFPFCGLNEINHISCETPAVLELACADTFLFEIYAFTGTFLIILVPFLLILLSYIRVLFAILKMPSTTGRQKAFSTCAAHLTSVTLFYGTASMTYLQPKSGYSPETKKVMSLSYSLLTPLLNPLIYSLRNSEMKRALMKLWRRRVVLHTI

Columns and labels:
Details in all cases: stereoisomer not certain
O10A4 = system: T1, O10A4
T1 sequence (whole entry): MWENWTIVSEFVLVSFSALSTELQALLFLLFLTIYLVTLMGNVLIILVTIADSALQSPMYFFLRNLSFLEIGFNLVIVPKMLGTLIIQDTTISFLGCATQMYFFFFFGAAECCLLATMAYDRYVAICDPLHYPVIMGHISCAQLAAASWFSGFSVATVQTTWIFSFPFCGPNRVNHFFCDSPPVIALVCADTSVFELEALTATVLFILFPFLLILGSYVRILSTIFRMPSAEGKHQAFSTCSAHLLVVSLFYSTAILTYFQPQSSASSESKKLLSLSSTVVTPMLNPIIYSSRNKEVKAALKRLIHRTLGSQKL
Procedure, shortened: (§1)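 Transient luciferase assays in mammalian cell lines were common, though methods varied by source. The values come from published papers and their supplementary material, with extra details from the original authors when needed. Responsive refers to a measured signal the original authors judged statistically different from baseline, and non-responsive (inactive) to the remainder.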

O10A5 = system: T2, O10A5
T2 sequence (whole entry): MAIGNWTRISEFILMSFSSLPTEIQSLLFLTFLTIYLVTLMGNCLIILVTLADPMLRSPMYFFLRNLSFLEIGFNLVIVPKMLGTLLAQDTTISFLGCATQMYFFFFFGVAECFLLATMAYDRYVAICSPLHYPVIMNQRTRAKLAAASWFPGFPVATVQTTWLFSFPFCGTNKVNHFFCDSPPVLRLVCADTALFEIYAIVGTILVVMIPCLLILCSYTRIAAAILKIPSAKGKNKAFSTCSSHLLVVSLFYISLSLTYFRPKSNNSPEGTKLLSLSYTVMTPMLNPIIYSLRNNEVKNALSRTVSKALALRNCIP
Procedure, shortened: as §1

O10AD = system: T3, O10AD
T3 sequence (whole entry): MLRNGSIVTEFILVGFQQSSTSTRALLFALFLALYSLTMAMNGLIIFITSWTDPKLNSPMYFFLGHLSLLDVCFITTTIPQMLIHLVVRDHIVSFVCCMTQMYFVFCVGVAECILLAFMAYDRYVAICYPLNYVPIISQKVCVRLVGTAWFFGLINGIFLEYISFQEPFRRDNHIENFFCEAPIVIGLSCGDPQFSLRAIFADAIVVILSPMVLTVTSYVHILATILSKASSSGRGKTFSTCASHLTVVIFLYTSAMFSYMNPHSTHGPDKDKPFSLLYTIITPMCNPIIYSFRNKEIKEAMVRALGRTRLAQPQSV
Procedure, shortened: as §1

O10C1 [1] = system: T4, O10C1
T4 sequence (whole entry): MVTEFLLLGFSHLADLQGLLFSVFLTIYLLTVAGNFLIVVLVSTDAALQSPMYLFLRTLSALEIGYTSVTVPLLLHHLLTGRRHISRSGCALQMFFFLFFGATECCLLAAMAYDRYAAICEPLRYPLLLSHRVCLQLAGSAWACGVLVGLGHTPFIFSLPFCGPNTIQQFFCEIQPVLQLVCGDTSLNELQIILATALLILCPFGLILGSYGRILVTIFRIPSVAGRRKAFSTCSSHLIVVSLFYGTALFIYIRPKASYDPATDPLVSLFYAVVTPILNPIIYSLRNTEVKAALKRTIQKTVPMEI
Procedure, shortened: as §1

O10D3 = system: T5, O10D3
T5 sequence (whole entry): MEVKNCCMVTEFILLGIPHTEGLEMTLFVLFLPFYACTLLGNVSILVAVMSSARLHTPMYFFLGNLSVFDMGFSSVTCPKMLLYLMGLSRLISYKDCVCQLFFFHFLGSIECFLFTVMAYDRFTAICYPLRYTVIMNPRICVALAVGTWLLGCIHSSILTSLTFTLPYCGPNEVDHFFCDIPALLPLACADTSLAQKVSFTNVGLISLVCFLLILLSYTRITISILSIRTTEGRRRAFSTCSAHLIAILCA
Procedure, shortened: as §1

O10G3 = system: T6, O10G3
T6 sequence (whole entry): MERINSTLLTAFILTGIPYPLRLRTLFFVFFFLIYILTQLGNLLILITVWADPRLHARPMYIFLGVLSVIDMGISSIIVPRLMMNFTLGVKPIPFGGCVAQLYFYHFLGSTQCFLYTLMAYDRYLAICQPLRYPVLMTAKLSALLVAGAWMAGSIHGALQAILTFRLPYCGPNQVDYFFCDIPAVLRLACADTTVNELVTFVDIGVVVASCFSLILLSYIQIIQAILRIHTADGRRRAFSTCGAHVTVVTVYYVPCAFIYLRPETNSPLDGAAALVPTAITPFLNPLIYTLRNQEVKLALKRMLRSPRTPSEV
Procedure, shortened: as §1

O10G4 = system: T7, O10G4
T7 sequence (whole entry): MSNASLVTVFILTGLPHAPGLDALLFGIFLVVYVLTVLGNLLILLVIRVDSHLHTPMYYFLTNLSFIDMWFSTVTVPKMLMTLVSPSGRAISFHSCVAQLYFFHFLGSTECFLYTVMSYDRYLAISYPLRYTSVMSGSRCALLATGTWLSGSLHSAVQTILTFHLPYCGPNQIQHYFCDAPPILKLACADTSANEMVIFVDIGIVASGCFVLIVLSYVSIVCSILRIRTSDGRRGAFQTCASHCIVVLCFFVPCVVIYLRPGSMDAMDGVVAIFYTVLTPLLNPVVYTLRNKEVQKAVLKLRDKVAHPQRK
Procedure, shortened: as §1

O10G9 = system: T8, O10G9
T8 sequence (whole entry): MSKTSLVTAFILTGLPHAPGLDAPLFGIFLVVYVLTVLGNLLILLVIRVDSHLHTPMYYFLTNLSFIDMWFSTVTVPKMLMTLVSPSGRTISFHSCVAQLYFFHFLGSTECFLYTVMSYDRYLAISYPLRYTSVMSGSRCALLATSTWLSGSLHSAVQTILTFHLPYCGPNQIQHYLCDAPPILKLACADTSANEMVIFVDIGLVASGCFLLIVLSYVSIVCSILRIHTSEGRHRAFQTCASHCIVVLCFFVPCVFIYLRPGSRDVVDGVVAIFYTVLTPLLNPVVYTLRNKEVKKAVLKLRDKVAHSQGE
Procedure, shortened: as §1

O10H2 = system: T9, O10H2
T9 sequence (whole entry): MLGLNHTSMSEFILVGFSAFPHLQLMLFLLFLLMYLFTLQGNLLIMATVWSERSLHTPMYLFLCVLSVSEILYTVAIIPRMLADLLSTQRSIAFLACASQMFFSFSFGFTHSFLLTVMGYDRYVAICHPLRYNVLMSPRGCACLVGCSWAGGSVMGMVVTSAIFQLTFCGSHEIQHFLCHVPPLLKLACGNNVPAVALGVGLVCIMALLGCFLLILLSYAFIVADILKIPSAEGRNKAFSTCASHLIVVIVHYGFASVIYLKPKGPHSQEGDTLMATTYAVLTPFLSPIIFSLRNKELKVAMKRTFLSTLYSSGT
Procedure, shortened: as §1

O10H5 = system: T10, O10H5
T10 sequence (whole entry): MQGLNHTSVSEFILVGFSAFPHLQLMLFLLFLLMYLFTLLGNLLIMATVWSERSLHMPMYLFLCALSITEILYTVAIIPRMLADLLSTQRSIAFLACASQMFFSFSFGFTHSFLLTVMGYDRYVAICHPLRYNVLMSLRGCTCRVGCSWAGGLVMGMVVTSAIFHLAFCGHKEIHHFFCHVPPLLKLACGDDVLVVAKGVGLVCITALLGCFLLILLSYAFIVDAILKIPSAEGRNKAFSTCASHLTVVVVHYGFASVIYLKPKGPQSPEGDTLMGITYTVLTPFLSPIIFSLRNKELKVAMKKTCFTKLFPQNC
Procedure, shortened: as §1

O10J1 = system: T11, O10J1
T11 sequence (whole entry): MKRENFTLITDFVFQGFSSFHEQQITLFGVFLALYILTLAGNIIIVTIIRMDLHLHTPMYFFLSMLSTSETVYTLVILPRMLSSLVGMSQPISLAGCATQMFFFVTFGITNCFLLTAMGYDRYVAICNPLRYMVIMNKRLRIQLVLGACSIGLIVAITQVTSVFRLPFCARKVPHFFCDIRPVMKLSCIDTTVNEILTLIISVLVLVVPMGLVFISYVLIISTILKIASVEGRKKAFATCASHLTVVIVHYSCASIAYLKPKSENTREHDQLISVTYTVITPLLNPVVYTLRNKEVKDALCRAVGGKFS
Procedure, shortened: as §1

O10G7 = system: O10G7
Procedure, shortened: as §1

O10A6 [2] = system: T12, O10A6
T12 sequence (whole entry): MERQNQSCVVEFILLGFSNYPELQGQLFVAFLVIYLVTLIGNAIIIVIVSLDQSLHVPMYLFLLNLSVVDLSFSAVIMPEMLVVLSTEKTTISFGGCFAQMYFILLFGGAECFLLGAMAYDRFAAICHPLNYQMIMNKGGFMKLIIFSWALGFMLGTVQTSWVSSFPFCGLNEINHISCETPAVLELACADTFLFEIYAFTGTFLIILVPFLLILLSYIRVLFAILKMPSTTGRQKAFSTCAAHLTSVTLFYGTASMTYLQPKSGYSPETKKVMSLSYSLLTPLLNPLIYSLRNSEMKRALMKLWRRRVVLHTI
Procedure, shortened: as §1

O10A6 [3] = system: T13, O10A6; remark: listed apart in the source
T13 sequence (whole entry): T12 sequence (whole entry) with A117V
Procedure, shortened: as §1

O10C1 [4] = system: O10C1; remark: listed apart in the source
Procedure, shortened: as §1

O10C1 [5] = system: O10C1; remark: listed apart in the source
Procedure, shortened: as §1
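Further: active if original authors judged signal statistically different from baseline.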

| SMILES | odorant receptor agonist call (O10A4) | odorant receptor agonist call (O10A5) | odorant receptor agonist call (O10AD) | odorant receptor agonist call (O10C1 [1]) | odorant receptor agonist call (O10D3) | odorant receptor agonist call (O10G3) | odorant receptor agonist call (O10G4) | odorant receptor agonist call (O10G9) | odorant receptor agonist call (O10H2) | odorant receptor agonist call (O10H5) | odorant receptor agonist call (O10J1) | odorant receptor agonist call (O10G7) | odorant receptor agonist call (O10A6 [2]) | odorant receptor agonist call (O10A6 [3]) | odorant receptor agonist call (O10C1 [4]) | odorant receptor agonist call (O10C1 [5]) |
| --- | --- | --- | --- | --- | --- | --- | --- | --- | --- | --- | --- | --- | --- | --- | --- | --- |
| C=CCc1ccc(OC(C)=O)c(OC)c1 | inactive | inactive | inactive | inactive | inactive | inactive | inactive | inactive | inactive | inactive | active |  |  |  |  |  |
| COc1ccccc1O | inactive | inactive | inactive | inactive | inactive | inactive | active | active | inactive | inactive | inactive |  |  |  |  |  |
| O=C1CCCCC1 |  | inactive | inactive | inactive | inactive | inactive |  | inactive | inactive | inactive |  |  |  |  |  |  |
| CCCCCOC(C)=O |  | inactive | inactive | inactive | inactive | inactive | inactive | inactive | inactive | inactive | inactive | active |  |  |  |  |
| CC1COCc2cc3c(cc21)C(C)(C)C(C)C3(C)C (stereo not given) | active | active | active | active | active | active | inactive | active | active | active | active |  |  |  |  |  |
| C=C(C)C1CCC2=CC(=O)CC(C)C2(C)C1 (stereo not given) |  |  |  | inactive |  |  | active |  |  |  | active |  | active | inactive | inactive | inactive |
| C=CC(C)(O)CCC=C(C)C (stereo not given) | inactive | inactive | inactive | inactive | inactive | inactive | inactive | inactive | inactive | inactive | inactive |  |  |  |  |  |
| COC(=O)c1ccccc1 |  | inactive | inactive | inactive | inactive | inactive |  | inactive | inactive | inactive |  |  |  |  |  |  |
| CCC1(O)C2(C)CCC(C2)C1(C)C (stereo not given) | inactive | inactive | inactive | inactive | inactive | inactive | inactive | inactive | inactive | inactive | inactive |  |  |  |  |  |
| CCCCO | inactive | inactive | inactive | inactive | inactive | inactive | inactive | inactive | inactive | inactive | inactive |  |  |  |  |  |
| C=CCc1ccc(OC)c(OC)c1 | inactive | inactive | inactive | inactive | inactive | inactive | active | inactive | inactive | inactive | inactive |  |  |  |  |  |
| C=CCSCC=C | inactive | inactive | inactive | inactive | inactive | inactive | inactive | inactive | inactive | inactive | inactive |  |  |  |  |  |
| CC(C)(O)CCCC1=CCC(C=O)CC1 (stereo not given) |  |  |  |  |  |  | inactive |  |  |  | inactive |  |  |  |  |  |
| CC(=O)OC1CC2CCC1(C)C2(C)C (stereo not given) | inactive | inactive | inactive | inactive | inactive | inactive | inactive | inactive | inactive | inactive | inactive |  |  |  |  |  |

A different layout for some results above.
SMILES	odorant receptor agonist call (O10A4)	odorant receptor agonist call (O10A5)	odorant receptor agonist call (O10AD)	odorant receptor agonist call (O10C1 [1])	odorant receptor agonist call (O10D3)	odorant receptor agonist call (O10G3)	odorant receptor agonist call (O10G4)	odorant receptor agonist call (O10G9)	odorant receptor agonist call (O10H2)	odorant receptor agonist call (O10H5)	odorant receptor agonist call (O10J1)	odorant receptor agonist call (O10G7)	odorant receptor agonist call (O10A6 [2])	odorant receptor agonist call (O10A6 [3])	odorant receptor agonist call (O10C1 [4])	odorant receptor agonist call (O10C1 [5])
O=C1CCCCC1		inactive	inactive	inactive	inactive	inactive		inactive	inactive	inactive						
C=CCSCC=C	inactive	inactive	inactive	inactive	inactive	inactive	inactive	inactive	inactive	inactive	inactive					
